Test results from ChEMBL document CHEMBL1133105, “Antimalarial, antitrypanosomal, and antileishmanial activities and cytotoxicity of bis(9-amino-6-chloro-2-methoxyacridines): influence of the linker” (J Med Chem, 2000).

System: Trypanosoma cruzi
Test: In Vitro inhibition concentration against Trypomastigote form of Trypanosoma cruzi
Assay type: functional, organism-based

With `O=C(Cn1ccnc1[N+](=O)[O-])NCc1ccccc1` [BENZNIDAZOLE] the IC50 was 3.13 µM.
